Experimental data reported in publication PMC3158767.
Results are given in words; binding and its absence hold for the method and conditions named. In cells and extracts the contact can be indirect. Binding calls can cover weak binding; strength is not graded here.

Target: T1, lamin B1 (endogenous, PC12 cells) (rat (endogenous in PC12)) (UniProt P70615)
T1 sequence: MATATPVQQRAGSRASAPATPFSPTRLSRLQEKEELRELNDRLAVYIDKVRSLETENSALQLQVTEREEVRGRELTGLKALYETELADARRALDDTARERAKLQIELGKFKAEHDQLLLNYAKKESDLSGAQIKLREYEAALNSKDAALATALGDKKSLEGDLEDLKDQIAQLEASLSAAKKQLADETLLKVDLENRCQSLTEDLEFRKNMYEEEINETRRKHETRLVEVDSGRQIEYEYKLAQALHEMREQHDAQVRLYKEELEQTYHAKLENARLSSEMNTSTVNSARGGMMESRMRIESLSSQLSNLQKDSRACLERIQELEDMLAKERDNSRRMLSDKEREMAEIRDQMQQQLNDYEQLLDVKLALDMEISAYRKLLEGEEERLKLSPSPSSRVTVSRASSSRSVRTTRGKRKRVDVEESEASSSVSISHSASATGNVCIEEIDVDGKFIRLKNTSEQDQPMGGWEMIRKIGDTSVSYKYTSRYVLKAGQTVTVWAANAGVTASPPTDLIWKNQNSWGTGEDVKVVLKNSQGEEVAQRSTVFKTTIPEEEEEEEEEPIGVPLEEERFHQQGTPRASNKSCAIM
Assay: co-IP; PC12 protein extracts incubated 1 h at 4°C with anti-lamin B1 antibody bound to protein G-agarose; washed in RIPA buffer; western blot with anti-lamin B1 and anti-Dp71 (H4); irrelevant antibody (IgG0) as control

Substance: dystrophin Dp71 (endogenous, PC12 cells) (rat (endogenous in PC12))
- binding: binds
